{"source": "patent US20090012067A1", "about": "“Modulation of Hypothalamic Atp-Sensitive Potassium Channels” (priority 2005, published 2009)", "system": "hepatic glucose production", "experiment": "pancreatic-hyperinsulinemic clamp (insulin 3 mU/kg·min) in SHAM and HV rats", "assay_type": "in vivo, Sprague-Dawley rats", "settings": "for FFA: Clamp, systemic insulin 3 mU/Kg·min; for ^3H-Glucose Plasma SA / ^3H-UDPglucose Liver SA / ^14C-PEP / ^14C-UDP glucose: systemic insulin (3 mU)", "protocol": "Panel A is a schematic representation of the pancreatic-hyperinsulinemic clamp procedure. At t=120 an infusion of labeled glucose was initiated and maintained for the remaining 4 hours of the study and a pancreatic hyperinsulinemic clamp was initiated at t=240 min and lasted for 2 hours. […] The figure is a longitudinal view of a rat brain, with olfactory bulb at the anterior end on the left and the caudal hindbrain on the right.\nIn vivo studies. For the studies in rats, the metabolic experiments were performed ˜3 weeks after stereotaxic surgery following complete recovery from the operation (FIG. 5). All solutions were diluted with artificial cerebral spinal fluid (aCSF). […] Euglycemic-hyperinsulinemic clamps in conscious, unrestrained, catheterized mice were performed for 90 min as previously described (Obici et al., 2003; Liu et al., 1998).\nSelective hepatic branch vagotomy. One week before the clamp procedure a subgroup of rats underwent selective hepatic vagotomy (HV) or sham operation (SHAM). Anatomical nerve transactions was verified in each rat at sacrifice by microscopic observation of the absence of vagal nerve fibers in between the two silk sutures that had been placed along the trunk at the time of transection (la Fleur et al., 2003).\nHepatic glucose fluxes. Rate of hepatic glucose fluxes was determined as described. Barzilai et al., 1997).", "data": [{"substance": "insulin", "values": [{"measurement": "FFA", "setting": "HV", "value": "0.5 ± 0.1", "unit": "mM"}, {"measurement": "^3H-Glucose Plasma SA", "setting": "HV", "value": "28.6 ± 1.8", "unit": "dpm/nmol"}, {"measurement": "^3H-UDPglucose Liver SA", "setting": "HV", "value": "6.3 ± 0.7", "unit": "dpm/nmol"}, {"measurement": "^14C-PEP", "setting": "HV", "value": "5.1 ± 1.1", "unit": "dpm/nmol"}, {"measurement": "^14C-UDP glucose", "setting": "HV", "value": "5.3 ± 0.7", "unit": "dpm/nmol"}, {"measurement": "^3H-Glucose Plasma SA", "setting": "SHAM", "value": "29.9 ± 2.5", "unit": "dpm/nmol"}, {"measurement": "^3H-UDPglucose Liver SA", "setting": "SHAM", "value": "6.3 ± 0.9", "unit": "dpm/nmol"}, {"measurement": "^14C-PEP", "setting": "SHAM", "value": "7.2 ± 1.4", "unit": "dpm/nmol"}, {"measurement": "^14C-UDP glucose", "setting": "SHAM", "value": "3.8 ± 0.6", "unit": "dpm/nmol"}, {"measurement": "FFA", "setting": "Sham", "value": "0.6 ± 0.2", "unit": "mM"}]}]}
